{"source": "paper PMC6804113", "about": "(Molecules, 2019)", "assay": "general procedure: Fmoc solid-phase peptide synthesis; Wang resin (peptides 2, 4-8, 10) or (CAM)-2-chlorotrityl resin (peptides 1, 3, 9); DIPCDI/HOBt", "settings": "cyclisation step, on linear purified peptide", "note": "HELM strings list residues between dots; [ac] is acetyl, [am] amide, other brackets name non-standard units. Positions of bridges follow the written chain, without caps; N, C: chain ends. Non-standard residues stand in square brackets, D forms with d. No end group written: not given here.", "data": [{"substance": "PEPTIDE1{L.C.P.Q.L.C.Q.R}$PEPTIDE1,PEPTIDE1,2:R3-6:R3$$$V2.0", "values": [{"measurement": "cyclisation yield", "result": 25, "unit": "%"}]}, {"substance": "PEPTIDE1{L.S.C.[dQ].L.Y.Q.C}$PEPTIDE1,PEPTIDE1,3:R3-8:R3$$$V2.0", "values": [{"measurement": "cyclisation yield", "result": 18, "unit": "%"}]}, {"substance": "PEPTIDE1{C.S.P.Q.L.Y.Q.C}$PEPTIDE1,PEPTIDE1,1:R3-8:R3$$$V2.0", "values": [{"measurement": "cyclisation yield", "result": 25, "unit": "%"}]}, {"substance": "PEPTIDE1{L.C.A.Q.L.Y.Q.C}$PEPTIDE1,PEPTIDE1,2:R3-8:R3$$$V2.0", "values": [{"measurement": "cyclisation yield", "result": 30, "unit": "%"}]}, {"substance": "Leu-c[Cys-Pro-Gln-Leu-Tyr-Gln-Arg-CAM]", "values": [{"measurement": "cyclisation yield", "result": 10, "unit": "%"}]}, {"substance": "PEPTIDE1{L.S.C.Q.L.Y.Q.R.[CAM]}$PEPTIDE1,PEPTIDE1,3:R3-9:R3$$$V2.0", "values": [{"measurement": "cyclisation yield", "result": 15, "unit": "%"}]}, {"substance": "LSC[dQ]LYCR (disulfide 3-7)", "values": [{"measurement": "cyclisation yield", "result": 29, "unit": "%"}]}, {"substance": "PEPTIDE1{L.C.P.Q.L.Y.C.R}$PEPTIDE1,PEPTIDE1,2:R3-7:R3$$$V2.0", "values": [{"measurement": "cyclisation yield", "result": 18, "unit": "%"}]}, {"substance": "PEPTIDE1{L.S.C.[dQ].L.Y.Q.R.[CAM]}$PEPTIDE1,PEPTIDE1,3:R3-9:R3$$$V2.0", "values": [{"measurement": "cyclisation yield", "result": 13, "unit": "%"}]}, {"substance": "PEPTIDE1{L.C.P.Q.L.Y.Q.C}$PEPTIDE1,PEPTIDE1,2:R3-8:R3$$$V2.0", "values": [{"measurement": "cyclisation yield", "result": 22, "unit": "%"}]}]}
